Experimental data from PMC12361384.
These are yes or no findings as the source states them, for the method shown. In cells and extracts the contact can be indirect. Some results given as binding are weak or reduced against the parent protein; the word gives no strength. Sequences can lack the tags named with a protein.

Chains of the proteins cited; added tags and fusions are not shown.
UniProt P84078: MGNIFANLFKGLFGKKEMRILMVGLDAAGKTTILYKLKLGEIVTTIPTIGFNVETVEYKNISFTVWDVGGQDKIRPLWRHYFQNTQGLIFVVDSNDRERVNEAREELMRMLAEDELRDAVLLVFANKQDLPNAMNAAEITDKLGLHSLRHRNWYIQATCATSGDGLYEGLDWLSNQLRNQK

Key:
[1] = molecular target: ARF1-EGFP (wild-type ADP-ribosylation factor 1 fused to EGFP) (mouse (cDNA library of C2C12 cells)) (UniProt P84078); test: co-IP; IP with anti-EGFP antibody, western blot; cells co-transfected with Plin2-mCherry and ARF1-EGFP (293T by the text, C2C12 by the legend), glucose-fed or glucose-starved for 8 h
[2] = molecular target: ARF1-EGFP (wild-type ADP-ribosylation factor 1 fused to EGFP) (mouse (cDNA library of C2C12 cells)) (UniProt P84078); test: co-IP; IP with anti-EGFP antibody, immunoblot; C2C12 cells co-transfected with Plin2-mCherry and ARF1-EGFP, glucose-fed or glucose-starved, with or without the AMPK inhibitor BAY-3827 (5 uM, 8 h)

B1: Plin2-mCherry (perilipin2 fused to mCherry) (protein, UniProt P43883 1-425)
chain: MAAAVVDPQQSVVMRVANLPLVSSTYDLVSSAYVSTKDQYPYLRSVCEMAEKGVKTVTSAAMTSALPIIQKLEPQIAVANTYACKGLDRMEERLPILNQPTSEIVASARGAVTGAKDVVTTTMAGAKDSVASTVSGVVDKTKGAVTGSVERTKSVVNGSINTVLGMVQFMNSGVDNAITKSELLVDQYFPLTQEELEMEAKKVEGFDMVQKPSNYERLESLSTKLCSRAYHQALSRVKEAKQKSQETISQLHSTVHLIEFARKNMHSANQKIQGAQDKLYVSWVEWKRSIGYDDTDESHCVEHIESRTLAIARNLTQQLQTTCQTVLVNAQGLPQNIQDQAKHLGVMAGDIYSVFRNAASFKEVSDGVLTSSKGQLQKMKESLDEVMDYFVNNTPLNWLVGPFYPQSTEVNKASLKVQQSEVKAQ
In the case of B1, the binding [1] is reported as “binds” and the binding [2] is reported as “binds”.
